Results taken from publication PMC9569955.
These are yes or no findings as the source states them, for the method shown. In cells and extracts the contact can be indirect. Here binding means that the protein was enriched with, or labelled near, the bait; the list need not be complete.

Sequences of proteins named here, by UniProt entry; tags and fusion partners are left off. Residues count along the entry.
UniProt O95793, residues 82-577: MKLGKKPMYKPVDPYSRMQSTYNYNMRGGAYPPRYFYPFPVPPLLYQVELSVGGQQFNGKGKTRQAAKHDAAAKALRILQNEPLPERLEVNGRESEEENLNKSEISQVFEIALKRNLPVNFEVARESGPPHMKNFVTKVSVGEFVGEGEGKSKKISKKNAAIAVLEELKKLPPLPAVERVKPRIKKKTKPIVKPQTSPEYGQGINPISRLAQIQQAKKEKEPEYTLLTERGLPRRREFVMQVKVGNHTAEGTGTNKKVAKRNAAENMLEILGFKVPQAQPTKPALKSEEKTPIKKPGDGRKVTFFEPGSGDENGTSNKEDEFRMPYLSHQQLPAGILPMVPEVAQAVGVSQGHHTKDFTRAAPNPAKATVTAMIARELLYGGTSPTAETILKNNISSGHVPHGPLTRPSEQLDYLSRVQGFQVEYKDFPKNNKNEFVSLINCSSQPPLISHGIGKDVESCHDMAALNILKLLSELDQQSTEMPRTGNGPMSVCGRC
UniProt P51114: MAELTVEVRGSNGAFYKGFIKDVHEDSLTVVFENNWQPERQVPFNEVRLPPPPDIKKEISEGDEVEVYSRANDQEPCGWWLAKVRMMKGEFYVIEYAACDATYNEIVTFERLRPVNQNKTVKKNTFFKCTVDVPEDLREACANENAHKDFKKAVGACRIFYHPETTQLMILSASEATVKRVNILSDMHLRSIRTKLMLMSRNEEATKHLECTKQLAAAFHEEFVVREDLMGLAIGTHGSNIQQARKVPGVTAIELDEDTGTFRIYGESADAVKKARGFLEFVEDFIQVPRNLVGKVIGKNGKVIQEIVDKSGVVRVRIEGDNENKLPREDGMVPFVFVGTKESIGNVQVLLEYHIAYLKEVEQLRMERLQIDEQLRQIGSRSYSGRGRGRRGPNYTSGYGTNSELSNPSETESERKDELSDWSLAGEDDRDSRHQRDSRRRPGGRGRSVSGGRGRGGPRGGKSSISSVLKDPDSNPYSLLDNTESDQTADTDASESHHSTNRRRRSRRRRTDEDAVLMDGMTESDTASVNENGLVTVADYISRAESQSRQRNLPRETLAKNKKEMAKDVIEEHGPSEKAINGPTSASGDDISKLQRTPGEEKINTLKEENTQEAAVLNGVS
UniProt Q14258: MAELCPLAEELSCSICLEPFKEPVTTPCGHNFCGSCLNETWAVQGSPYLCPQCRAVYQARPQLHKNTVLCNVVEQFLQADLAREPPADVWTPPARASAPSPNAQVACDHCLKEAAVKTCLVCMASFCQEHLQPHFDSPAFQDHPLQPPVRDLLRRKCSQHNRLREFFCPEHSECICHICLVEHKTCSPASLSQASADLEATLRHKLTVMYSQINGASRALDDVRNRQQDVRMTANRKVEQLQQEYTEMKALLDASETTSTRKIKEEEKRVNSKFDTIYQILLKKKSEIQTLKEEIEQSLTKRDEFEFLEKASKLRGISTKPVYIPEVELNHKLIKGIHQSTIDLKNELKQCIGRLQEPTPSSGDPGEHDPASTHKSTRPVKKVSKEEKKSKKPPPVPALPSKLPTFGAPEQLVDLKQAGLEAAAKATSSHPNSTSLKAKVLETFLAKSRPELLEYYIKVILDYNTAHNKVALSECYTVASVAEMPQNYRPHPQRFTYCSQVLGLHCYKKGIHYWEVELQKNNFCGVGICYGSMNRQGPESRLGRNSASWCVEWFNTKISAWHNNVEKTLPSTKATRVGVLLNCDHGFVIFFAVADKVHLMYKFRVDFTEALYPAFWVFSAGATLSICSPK
UniProt Q12834: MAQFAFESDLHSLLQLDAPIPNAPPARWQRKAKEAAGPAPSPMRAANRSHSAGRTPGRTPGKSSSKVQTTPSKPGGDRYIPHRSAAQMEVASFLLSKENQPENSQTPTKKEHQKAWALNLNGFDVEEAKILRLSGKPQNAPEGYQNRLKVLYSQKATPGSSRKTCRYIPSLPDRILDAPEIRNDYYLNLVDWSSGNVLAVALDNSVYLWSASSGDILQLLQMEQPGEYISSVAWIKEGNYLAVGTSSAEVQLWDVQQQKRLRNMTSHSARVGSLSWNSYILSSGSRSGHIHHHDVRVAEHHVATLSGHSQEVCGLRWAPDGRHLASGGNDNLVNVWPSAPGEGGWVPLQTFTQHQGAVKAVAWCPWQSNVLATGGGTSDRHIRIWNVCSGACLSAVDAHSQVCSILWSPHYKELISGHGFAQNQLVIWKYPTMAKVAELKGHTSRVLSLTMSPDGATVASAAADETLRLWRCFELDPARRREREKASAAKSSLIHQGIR

Tests used:
[1] = target: STAU1^55-HA3-biotin ligase (BioID2) (UniProt O95793); assay: proximity labelling; BioID2: asynchronous hTERT-RPE1 cells stably expressing Stau1^55-HA3-BioID2, 50 uM biotin for 16 h; biotinylated proteins pulled down with streptavidin-coated magnetic beads, LC-MS/MS; proteins kept if total spectrum enriched at least four times over controls
STAU1^55-HA3-TurboID = STAU1^55-HA3-TurboID (UniProt O95793); assay: proximity labelling; TurboID: hTERT-RPE1 cells stably expressing STAU1^55-HA3-TurboID, synchronized in mitosis (nocodazole) or in G1/S (double thymidine block), 50 uM biotin for 3 h; biotinylated proteins pulled down with streptavidin-coated magnetic beads, LC-MS/MS; proteins kept if total spectrum enriched at least four times over controls

FXR1 (from UniProt P51114 1-621) was tested, and the binding [1] was “binds”.

In the case of TRIM25 (from UniProt Q14258 1-630), the binding [1] is reported as “binds” and the binding (STAU1^55-HA3-TurboID) is reported as “binds”.

“cell division cycle 20 (CDC20) (from UniProt Q12834 1-499)” was tested, and the binding (STAU1^55-HA3-TurboID) was “binds”.

B1: UPF1 (protein, UniProt Q92900 1-1129)
chain: MSVEAYGPSSQTLTFLDTEEAELLGADTQGSEFEFTDFTLPSQTQTPPGGPGGPGGGGAGGPGGAGAGAAAGQLDAQVGPEGILQNGAVDDSVAKTSQLLAELNFEEDEEDTYYTKDLPIHACSYCGIHDPACVVYCNTSKKWFCNGRGNTSGSHIVNHLVRAKCKEVTLHKDGPLGETVLECYNCGCRNVFLLGFIPAKADSVVVLLCRQPCASQSSLKDINWDSSQWQPLIQDRCFLSWLVKIPSEQEQLRARQITAQQINKLEELWKENPSATLEDLEKPGVDEEPQHVLLRYEDAYQYQNIFGPLVKLEADYDKKLKESQTQDNITVRWDLGLNKKRIAYFTLPKTDSGNEDLVIIWLRDMRLMQGDEICLRYKGDLAPLWKGIGHVIKVPDNYGDEIAIELRSSVGAPVEVTHNFQVDFVWKSTSFDRMQSALKTFAVDETSVSGYIYHKLLGHEVEDVIIKCQLPKRFTAQGLPDLNHSQVYAVKTVLQRPLSLIQGPPGTGKTVTSATIVYHLARQGNGPVLVCAPSNIAVDQLTEKIHQTGLKVVRLCAKSREAIDSPVSFLALHNQIRNMDSMPELQKLQQLKDETGELSSADEKRYRALKRTAERELLMNADVICCTCVGAGDPRLAKMQFRSILIDESTQATEPECMVPVVLGAKQLILVGDHCQLGPVVMCKKAAKAGLSQSLFERLVVLGIRPIRLQVQYRMHPALSAFPSNIFYEGSLQNGVTAADRVKKGFDFQWPQPDKPMFFYVTQGQEEIASSGTSYLNRTEAANVEKITTKLLKAGAKPDQIGIITPYEGQRSYLVQYMQFSGSLHTKLYQEVEIASVDAFQGREKDFIILSCVRANEHQGIGFLNDPRRLNVALTRARYGVIIVGNPKALSKQPLWNHLLNYYKEQKVLVEGPLNNLRESLMQFSKPRKLVNTINPGARFMTTAMYDAREAIIPGSVYDRSSQGRPSSMYFQTHDQIGMISAGPSHVAAMNIPIPFNLVMPPMPPPGYFGQANGPAAGRGTPKGKTGRGGRQKNRFGLPGPSQTNLPNSQASQDVASQPFSQGALTQGYISMSQPSQMSQPGLSQPELSQDSYLGDEFKSQIDVALSQDSTYQGERAYQHGGVTGLSQY
With B1 the binding [1] was “binds”.

B2: ZNF598 (protein, UniProt Q86UK7 1-904)
chain: MAAAGGAEGRRAALEAAAAAAPERGGGSCVLCCGDLEATALGRCDHPVCYRCSTKMRVLCEQRYCAVCREELRQVVFGKKLPAFATIPIHQLQHEKKYDIYFADGKVYALYRQLLQHECPRCPELPPFSLFGDLEQHMRRQHELFCCRLCLQHLQIFTYERKWYSRKDLARHRMQGDPDDTSHRGHPLCKFCDERYLDNDELLKHLRRDHYFCHFCDSDGAQDYYSDYAYLREHFREKHFLCEEGRCSTEQFTHAFRTEIDLKAHRTACHSRSRAEARQNRHIDLQFSYAPRHSRRNEGVVGGEDYEEVDRYSRQGRVARAGTRGAQQSRRGSWRYKREEEDREVAAAVRASVAAQQQEEARRSEDQEEGGRPKKEEAAARGPEDPRGPRRSPRTQGEGPGPKETSTNGPVSQEAFSVTGPAAPGCVGVPGALPPPSPKLKDEDFPSLSASTSSSCSTAATPGPVGLALPYAIPARGRSAFQEEDFPALVSSVPKPGTAPTSLVSAWNSSSSSKKVAQPPLSAQATGSGQPTRKAGKGSRGGRKGGPPFTQEEEEDGGPALQELLSTRPTGSVSSTLGLASIQPSKVGKKKKVGSEKPGTTLPQPPPATCPPGALQAPEAPASRAEGPVAVVVNGHTEGPAPARSAPKEPPGLPRPLGSFPCPTPQEDFPALGGPCPPRMPPPPGFSAVVLLKGTPPPPPPGLVPPISKPPPGFSGLLPSPHPACVPSPATTTTTKAPRLLPAPRAYLVPENFRERNLQLIQSIRDFLQSDEARFSEFKSHSGEFRQGLISAAQYYKSCRDLLGENFQKVFNELLVLLPDTAKQQELLSAHTDFCNREKPLSTKSKKNKKSAWQATTQQAGLDCRVCPTCQQVLAHGDASSHQALHAARDDDFPSLQAIARIIT
B2 was tested, and the binding [1] was “binds” and the binding (STAU1^55-HA3-TurboID) was “binds”.

B3: STAU2 (protein, UniProt Q9NUL3 1-570)
chain: MANPKEKTAMCLVNELARFNRVQPQYKLLNERGPAHSKMFSVQLSLGEQTWESEGSSIKKAQQAVANKALTESTLPKPVQKPPKSNVNNNPGSITPTVELNGLAMKRGEPAIYRPLDPKPFPNYRANYNFRGMYNQRYHCPVPKIFYVQLTVGNNEFFGEGKTRQAARHNAAMKALQALQNEPIPERSPQNGESGKDVDDDKDANKSEISLVFEIALKRNMPVSFEVIKESGPPHMKSFVTRVSVGEFSAEGEGNSKKLSKKRAATTVLQELKKLPPLPVVEKPKLFFKKRPKTIVKAGPEYGQGMNPISRLAQIQQAKKEKEPDYVLLSERGMPRRREFVMQVKVGNEVATGTGPNKKIAKKNAAEAMLLQLGYKASTNLQDQLEKTGENKGWSGPKPGFPEPTNNTPKGILHLSPDVYQEMEASRHKVISGTTLGYLSPKDMNQPSSSFFSISPTSNSSATIARELLMNGTSSTAEAIGLKGSSPTPPCSPVQPSKQLEYLARIQGFQAALSALKQFSEQGLDPIDGAMNIEKGSLEKQAKHLREKADNNQAPPGSIAQDCKKSNSAV
With B3 the binding [1] was “binds”.
